Data published in US20080108655A1, “Drug composition and method for treating malaria and malignancy” (priority 2005, published 2008).

Tests used:
[1] = test system: P. falciparum W2 (chloroquine-resistant); test: 72 hour growth inhibition assay, fluorescence-based, strain W2; type: cell-based; conditions: W2, in vitro
Experimental: (§1) All in vitro studies were 72 hour growth inhibition assays, starting with 0.2% parasitemia, 2% hematocrit under standard culture conditions in 96 well microplates. Growth was quantified using the fluorescence-based assay developed in our lab (Smilkstein et al; Antimicrobial Agents and Chemotherapy 2004;48:1803-1806). EC50 determined by non-linear regression curve fitting (sigmoidal dose-response, variable slope equation) using GraphPad Prism software. Isobolograms and EC50,75 and 90 estimates computed using CalcuSyn software (Biosoft, T. C. Chou).
(§2) 2. […] In the following figures, fixed-ratio combinations of 2 drugs are made at the concentrations of each described in the figure legend (Fivelman, Adagu and Warhurst. Antimicrobial Agents and Chemotherapy 2004;48:4097-4102). Then, in quadruplicate, each of these combinations is diluted serially 2-fold, yielding one curve for each starting mixture. The data are expressed using the concentration of the antimalarial of interest on the X axis. […] In each starting combination, an increase of one drug is accompanied by a corresponding decrease in the other. As a result, overlapping curves indicate an additive relationship; a shift to the left, synergy; and a shift to the right, antagonism. • b. […]

[2] = test system: P. falciparum Dd2 (multidrug resistant)
Experimental: as §1, §2

[3] = human, in vivo; cited from earlier work
CQ-resistant P. chabaudi = conditions: mice, single pilot trial

Cc1ccccc1C(OCCN(C)C)c1ccccc1 (racemic) [orphenadrine]
potency in chemosensitizing to chloroquine, compared with chlorpheniramine [1]: approximately twice as potent as chlorpheniramine | potency in chemosensitizing to chloroquine, compared with chlorpheniramine ([2]; Dd2, in vitro): approximately twice as potent as chlorpheniramine | intrinsic antimalarial activity of the drug alone ([2]; Dd2 compared with D6): far greater in multidrug resistant (e.g., Dd2) than in non-resistant (e.g., D6) parasites | typical serum concentration values [3]: < 1 µM | typical serum concentrations in clinical use [3]: 500 nM-2 μM | activity in vivo against CQ-resistant P. chabaudi (CQ-resistant P. chabaudi): active in vivo
